# Laboratory results published in patent US20100331240A1 (GENERAL HOSPITAL, published 2010).
# T1: biotinylated human placental calreticulin (human, UniProt P27797 18-417, biotinylated (sites not given))
# T1 sequence: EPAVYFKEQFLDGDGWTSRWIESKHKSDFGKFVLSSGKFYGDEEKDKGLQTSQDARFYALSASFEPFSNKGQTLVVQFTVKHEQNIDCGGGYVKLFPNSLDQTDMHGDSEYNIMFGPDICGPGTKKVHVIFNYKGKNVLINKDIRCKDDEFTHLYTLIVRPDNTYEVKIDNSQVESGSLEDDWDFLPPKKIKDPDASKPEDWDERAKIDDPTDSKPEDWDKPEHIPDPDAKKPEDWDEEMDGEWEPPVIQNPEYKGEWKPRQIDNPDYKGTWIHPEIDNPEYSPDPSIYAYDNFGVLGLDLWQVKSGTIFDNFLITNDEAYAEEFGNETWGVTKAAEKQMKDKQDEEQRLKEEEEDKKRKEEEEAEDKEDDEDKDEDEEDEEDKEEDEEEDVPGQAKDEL
# B1: L-FCN-MBL126 chimeric L-ficolin-MBL fusion protein (other)
# chain: LQAADTCPEVKMVGLEGSDKLTILRGCPGLPGAPGPKGEAGTNGKRGERGPPGPPGKAGPPGPNGAPGEPQPCLTGPRTCKDLLDRGHFLSGWHTIYLPDCRPLTFSLGKQVGNKFFLTNGEIMTFEKVKALCVKFQASVATPRNAAENGAIQNLIKEEAFLGITDEKTEGQFVDLTGNRLTYTNWNEGEPNNAGSDEDCVLLLKNGQWNDVPCSTSHLAVCEFPI
# Target: T1, biotinylated human placental …
# Experiment: ELISA: plate coated with lectin 10 ug/mL, biotinylated calreticulin 5 ug/mL, O.D. 405
binder,measurement,value
B1,binding result,binds
